The shares of active, inactive and inconclusive entries below differ from those in the screen. Potencies beside an inconclusive call are fits to weak or partial responses and may not hold up. Calls of active or inactive are those of the source. Calls come from the whole dose curve; as a rule, active = well fitted cell-killing curve with a large enough effect; inconclusive = small, poorly fitted or top-dose-only effect, or effect the other way; inactive = no such curve, though single readings can be large or run the other way.
assay: Quantitative highthroughput screen to assess conditional lethalithy of SEM cells grown in RPMI1640 with dialyzed fetal bovine serum (RPMI+ds) (AID 1963884); settings: SEM B-ALL cells, RPMI+dialyzed FBS, CellTiter-Glo viability, 48 h; viability: at 45.8 µM (top of the series); note: nearly all actives have a fitted effect of over 35% in size;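 for viability: 100% = DMSO control wells and 0% = empty wells without cells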
In short: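 Each medium arm—HPLM with 10% dialyzed FBS, or RPMI1640 with 5 mM glucose and 10% untreated or dialyzed FBS—was screened against an 11-point, 3-fold compound titration for 48 h at 37 °C, with CellTiter-Glo luminescence as endpoint.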
Potency is the fitted concentration of half-maximal effect.

Row | Compound | Potency | viability
1 | COc1cc(N2CCC(O)CC2)ccc1Nc1cc(Nc2ccccc2S(=O)(=O)C(C)C)c2cc[nH]c2n1 | inconclusive: 0.209 µM [cytotoxic, full curve, poor fit] | –
2 | C[C@H](CCC(=O)O)[C@H]1CC[C@H]2[C@@H]3[C@H](O)C[C@@H]4C[C@H](O)CC[C@]4(C)[C@@H]3CC[C@]12C | – | inactive: 82.9%
3 | Cc1nc(NC(=O)N2CCC[C@@H]2C(N)=O)sc1-c1ccnc(C(C)(C)C(F)(F)F)c1 | active: 2.96 µM | –
4 | COc1ccc([C@@H]2CC(=O)c3c(O)cc(O[C@@H]4O[C@H](CO[C@@H]5O[C@@H](C)[C@H](O)[C@@H](O)[C@@H]5O)[C@@H](O)[C@H](O)[C@@H]4O)cc3O2)cc1O | inconclusive: 37.2 µM [cytotoxic, single point] | –
5 | COc1ccc(C=CC(=O)Nc2ccccc2C(=O)O)cc1OC | inconclusive: 6.62 µM [rising, partial curve, poor fit] | –
6 | OCCn1cc(-c2ccc3c(c2)CCC3=NO)c(-c2ccncc2)n1 | – | inactive: 96.4%
7 | CC1(C)CCC[C@@]2(C)[C@@H]1CC[C@@]1(C)OC(=O)C[C@H]21 | – | inactive: 106%
8 | CC=C(C(=CC)c1ccc(O)cc1)c1ccc(O)cc1 | inconclusive: 37.2 µM [cytotoxic, single point] | –
9 | O=C1c2c(O)cccc2[C@@H]([C@@H]2O[C@H](CO)[C@@H](O)[C@H](O)[C@H]2O)c2cc(CO)cc(O)c21 | – | inactive: 111%
10 | O=c1c(-c2ccc(O)cc2)coc2cc(O[C@@H]3O[C@H](CO)[C@H](O)[C@H](O)[C@H]3O)ccc12 | inconclusive: 23.5 µM [cytotoxic, partial curve] | –

Structures shown so far that have sulfur:
Row | Compound | Potency | viability
1 | COc1cc(N2CCC(O)CC2)ccc1Nc1cc(Nc2ccccc2S(=O)(=O)C(C)C)c2cc[nH]c2n1 | inconclusive: 0.209 µM [cytotoxic, full curve, poor fit] | –
3 | Cc1nc(NC(=O)N2CCC[C@@H]2C(N)=O)sc1-c1ccnc(C(C)(C)C(F)(F)F)c1 | active: 2.96 µM | –
